According to patent US9150632B2 (Indiana University Research and Technology Corporation, priority 2009, dated 2015):

Assay: general procedure: Boc solid-phase peptide synthesis; Boc Thr(OBzl) Pam resin; methoxybenzhydrylamine resin; 4-methylbenzhydrylamine (MBHA) resin; HBTU (FastBoc single couplings); DEPBT for lactam peptides; PyBOP for on-resin l
Conditions: conjugation step

Substance	final HPLC purity (214 nm)	difficulty met	final HPLC purity (analytical RP-HPLC, Zorbax C8, 214 nm, MALDI or ESI mass spectral analysis)
Glucagon Cys^29 Mal-PEG-5K	greater than 95%	–	–
Glucagon Cys^24 Mal-PEG-20K	–	The product ratio had not significantly improved	˜90%
